Some of the results follow. Further columns of the screen follow, without active or inactive calls. Most of these compounds were active or inconclusive in the main read-out, so they are no random draw. Potencies come from curve fits of mixed quality, noted in brackets.
Experiment: qHTS Assay for Modulators of Lamin A Splicing
Conditions: HeLa LMNA splicing GFP/RFP minigene ratio, 48 h
Outline: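 Read-out is the ratio of GFP to DsRed2 object intensity, acquired by 488 nm laser-scanning cytometry on HeLa lamin A-EGFP minigene reporter cells. Compound incubation 48 hrs at 37 °C in Opti-MEM with 2% FBS; DMSO 0.5% final.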

[1] = measured here: GFP splicing reporter channel
[2] = measured here: RFP viability control channel

| SMILES | AC50 [1] | AC50 [2] |
| --- | --- | --- |
| CCc1c(C)nc(SCC(=O)Nc2nc(-c3ccc(OC)cc3)cs2)[nH]c1=O | 20 µM [rising, partial curve, poor fit] | 0.0112 µM [rising, full curve, poor fit] |
| CN(Cc1ccco1)C(=O)c1ccc2c(c1)N(Cc1ccccc1F)C(=O)c1ccccc1S2 | 35.5 µM [rising, single point] | 31.6 µM [rising, single point] |
| Cc1cc(C(=O)CSc2nc(N)cc(=O)[nH]2)c(C)n1-c1ccc(OC(F)F)cc1 | 3.98 µM [falling, full curve, poor fit] |  |
| COc1cccc(-c2nc(NCc3ccccc3OC)c3ccccc3n2)c1 | 11.2 µM [falling, partial curve, poor fit] | 12.6 µM [falling, single point] |
| Cc1cccc2sc(NC(=O)CN(C)S(=O)(=O)c3cccs3)nc12 | 31.6 µM [falling, single point] | 5.62 µM [falling, single point] |
| COc1ccc(OC)c(C(c2nnnn2C2CCCC2)N2CCc3ccccc3C2)c1 (configuration not stated) | 35.5 µM [rising, single point] | 22.4 µM [rising, single point] |
| COc1ccc(-c2nnc(SCC(=O)Nc3cc(S(=O)(=O)N4CCCCC4)ccc3Cl)n2N)cc1 | 35.5 µM [rising, single point] | 35.5 µM [rising, single point] |
| O=S(=O)(c1ccc2nc(SCc3ccc(Cl)cc3)[nH]c2c1)N1CCOCC1 | 20 µM [rising, single point] | 22.4 µM [rising, single point] |
| Cc1cccc(N2CCN(C(=O)c3cccn4c(=O)c5cc(Cl)ccc5nc34)CC2C)c1 (configuration not stated) | 14.1 µM [falling, single point] | 11.2 µM [falling, partial curve, poor fit] |
| C[C@H](NC(=O)N1CCc2nc(-c3ccccc3)c3c(c2C1)CO[C@@H](C)C3)c1ccccc1 | 0.000891 µM [rising, full curve, poor fit] |  |
| CC(=O)c1c(N2CCN(Cc3ccccc3)CC2)nc(=S)n(Cc2ccccc2)c1C |  | 35.5 µM [rising, single point] |
| CCOC(=O)c1c(NC(=O)c2cc(-c3cccc(O)c3)on2)sc(C(C)=O)c1C |  | 3.98 µM [rising, single point] |
| CC(C)(CO)[C@@H](O)C(=O)NCCCO | 0.794 µM [falling, single point] |  |
| Cc1ccc(C)c(S(=O)(=O)N2CCN(CC(=O)Nc3ccc4c(c3)CCC4)CC2)c1 |  | 31.6 µM [rising, single point] |
| O=C1OC(C(=O)Nc2ccccc2)Cc2ccccc21 (configuration not stated) | 5.62 µM [rising, partial curve, poor fit] | 3.55 µM [rising, single point] |
| CCN(CC)S(=O)(=O)c1cccc(C(=O)N/N=C(\C)c2cccs2)c1 | 3.98 µM [falling, partial curve] |  |
| O=S(=O)(NCc1ccccc1)c1ccc(S(=O)(=O)N(Cc2ccccn2)C2CCCC2)cc1 |  | 35.5 µM [rising, single point] |
| O=C(c1cc(COc2ccc3ncccc3c2)on1)N1CCCCCC1 | 0.398 µM [falling, single point] |  |
| O=C(CC(c1ccccc1)c1ccccc1)NCc1cccnc1 |  | 10 µM [rising, partial curve, poor fit] |
| CCNc1ncc2nc(-c3cccs3)c(=O)n(C[C@H]3CCCO3)c2n1 | 11.2 µM [falling, partial curve, poor fit] | 35.5 µM [falling, single point] |
| CC(C)CC(COCc1ccc(C(F)(F)F)cc1)N1CCN(C(=O)c2ccc(C(F)(F)F)cc2)CCC1=O (configuration not stated) | 12.6 µM [rising, single point] | 14.1 µM [rising, single point] |
| CCOC(=O)[C@H](CCc1ccccc1)N[C@@H](C)C(=O)N1[C@H](C(=O)O)C[C@H]2CCCC[C@@H]21 |  | 1.41 µM [rising, full curve] |
| CC(=O)Nc1ccc(N=C(C2=C(O)c3ccccc3C2=O)c2ccccc2)cc1 | 35.5 µM [falling, single point] | 12.6 µM [rising, single point] |
| CCCC(=O)c1ccc(N2CCN(C(=O)OCC)CC2)c(F)c1 | 12.6 µM [rising, single point] |  |
| Cc1cccc(N2CCN(C(=O)C3CCN(S(=O)(=O)c4cccc5cccnc45)CC3)CC2C)c1 (configuration not stated) |  | 15.8 µM [rising, single point] |
| CC(C)Cn1c(SCC(=O)N2CCc3ccccc3C2)nc2cc(Cl)ccc2c1=O | 10 µM [rising, partial curve] | 25.1 µM [rising, partial curve] |

Of the compounds above, three contain an NH in an aromatic ring:

| SMILES | AC50 [1] | AC50 [2] |
| --- | --- | --- |
| CCc1c(C)nc(SCC(=O)Nc2nc(-c3ccc(OC)cc3)cs2)[nH]c1=O | 20 µM [rising, partial curve, poor fit] | 0.0112 µM [rising, full curve, poor fit] |
| Cc1cc(C(=O)CSc2nc(N)cc(=O)[nH]2)c(C)n1-c1ccc(OC(F)F)cc1 | 3.98 µM [falling, full curve, poor fit] |  |
| O=S(=O)(c1ccc2nc(SCc3ccc(Cl)cc3)[nH]c2c1)N1CCOCC1 | 20 µM [rising, single point] | 22.4 µM [rising, single point] |

More structures follow:

| SMILES | AC50 [1] | AC50 [2] |
| --- | --- | --- |
| C=C(C)C1CC[C@]2(CO)CC[C@@]3(C)[C@H](CCC4[C@@]5(C)CCC(O)C(C)(C)C5CC[C@@]43C)C12 (some centres not stated) |  | 14.1 µM [falling, partial curve] |
| COc1ccc(C2=NN(C3=NN=C(N)Cc4ncnn43)C(O)(C(F)(F)F)C2)cc1 (configuration not stated) | 0.02 µM [falling, full curve, poor fit] | 0.0447 µM [falling, full curve, poor fit] |
| COc1ccc(OC)c(NC(=O)c2nc(-c3ccccc3)oc2C)c1 | 0.316 µM [rising, partial curve] | 0.631 µM [rising, partial curve] |
| Cc1ccc(-c2cc(C(=O)N3CCCc4ccccc43)no2)cc1 |  | 17.8 µM [falling, single point] |
| Cc1csc(NC(=O)c2cc3c(s2)CCCC3)n1 | 12.6 µM [rising, partial curve] | 12.6 µM [rising, partial curve] |
| COc1ccc(S(=O)(=O)Nc2ccc(Cl)cn2)c(C)c1C |  | 12.6 µM [rising, partial curve, poor fit] |
| O=C(NCCc1ccc(Cl)cc1)Nc1cccc(Cl)c1 |  | 0.316 µM [falling, partial curve, poor fit] |
| COc1ccccc1-c1cc(C(F)(F)F)nc(S(=O)(=O)CCCC(=O)N2CCOCC2)n1 | 22.4 µM [falling, single point] | 12.6 µM [falling, single point] |
| Cc1c(Cl)cccc1NC(=O)C1CCN(S(C)(=O)=O)CC1 | 0.316 µM [rising, full curve, poor fit] | 0.00316 µM [rising, full curve, poor fit] |
| O=C(c1ccc(Cl)cc1)N1CCC(c2ccncc2)CC1 | 0.891 µM [falling, full curve] |  |
| Cc1cc(C)n(-c2cc(N3CCN(C(=O)c4ccc(C(C)(C)C)cc4)CC3)ccc2[N+](=O)[O-])n1 | 35.5 µM [falling, single point] |  |
| Cc1cccc(NC(=S)N2CCN(c3cc(C)ccc3C)CC2)c1 | 17.8 µM [rising, single point] | 35.5 µM [rising, single point] |
| c1nc(NCCN2CCOCC2)c2c3c(sc2n1)CCCCC3 |  | 11.2 µM [rising, single point] |
| CC(C)(C)c1ccc(S(=O)(=O)NCc2ccc3c(c2)CCN3C(=O)c2ccccc2)cc1 | 35.5 µM [falling, single point] | 35.5 µM [falling, single point] |
| Fc1ccccc1N1CCN(c2cnc3ccccc3n2)CC1 | 15.8 µM [rising, partial curve] | 22.4 µM [rising, partial curve] |
| COc1cccc(-c2nc(NCc3cccnc3)c3ccccc3n2)c1 | 12.6 µM [falling, single point] | 14.1 µM [falling, single point] |
| CN(c1ccc(C(=O)NCCSCc2ccccc2)cc1)S(=O)(=O)c1ccccc1 | 12.6 µM [rising, partial curve] | 22.4 µM [rising, single point] |
| CC(C)NC(=O)NC(=O)COC(=O)c1cccc(OC(F)F)c1 |  | 0.282 µM [falling, full curve] |
| COc1ccc(N2CCN(c3oc(-c4ccc(OC)c(OC)c4)nc3C#N)CC2)cc1 |  | 20 µM [rising, single point] |
| Cc1ccc(NC(=O)CSc2nnc(COc3ccc(C#N)cc3)n2-c2ccccc2)cc1C |  | 22.4 µM [rising, partial curve] |
| COc1ccc(C(=O)OCc2cc(=O)n3nc(-c4cccs4)sc3n2)cc1 |  | 0.355 µM [falling, full curve, poor fit] |
| CCOC(=O)c1c(NC(=O)CSc2c[nH]c3ccccc23)sc2c1CCC2 | 35.5 µM [rising, single point] | 35.5 µM [rising, single point] |
| CCC(=O)Nc1cccc(NC(=O)c2cccc([N+](=O)[O-])c2C)c1 |  | 35.5 µM [rising, partial curve, poor fit] |
| CCOc1ccccc1NC(=S)NC1CCCCC1 |  | 20 µM [rising, single point] |
| CSc1sc(C(=O)NC(=O)NCc2cccnc2)c(C)c1-c1ccon1 | 0.158 µM [rising, full curve, poor fit] |  |
| CN(C)C(=O)c1ccc(-c2nc(Nc3ccc(F)cc3)c3ccccc3n2)cc1 | 35.5 µM [falling, single point] | 35.5 µM [falling, single point] |

— PubChem BioAssay AID1487 (National Center for Advancing Translational Sciences (NCATS), 2009)
